Experimental data: publication PMC9492696
Results are given in words; binding and its absence hold for the method and conditions named. Binding seen in cells or lysates may run through a third protein. Some binding calls cover weakened binding; strength is not graded here. For some assays here: Tags and fused reporters may be left off the sequences shown.

Amino acid sequences for entries named in this document (tags omitted). Residues count along the entry.
UniProt P05106, residues 27-788: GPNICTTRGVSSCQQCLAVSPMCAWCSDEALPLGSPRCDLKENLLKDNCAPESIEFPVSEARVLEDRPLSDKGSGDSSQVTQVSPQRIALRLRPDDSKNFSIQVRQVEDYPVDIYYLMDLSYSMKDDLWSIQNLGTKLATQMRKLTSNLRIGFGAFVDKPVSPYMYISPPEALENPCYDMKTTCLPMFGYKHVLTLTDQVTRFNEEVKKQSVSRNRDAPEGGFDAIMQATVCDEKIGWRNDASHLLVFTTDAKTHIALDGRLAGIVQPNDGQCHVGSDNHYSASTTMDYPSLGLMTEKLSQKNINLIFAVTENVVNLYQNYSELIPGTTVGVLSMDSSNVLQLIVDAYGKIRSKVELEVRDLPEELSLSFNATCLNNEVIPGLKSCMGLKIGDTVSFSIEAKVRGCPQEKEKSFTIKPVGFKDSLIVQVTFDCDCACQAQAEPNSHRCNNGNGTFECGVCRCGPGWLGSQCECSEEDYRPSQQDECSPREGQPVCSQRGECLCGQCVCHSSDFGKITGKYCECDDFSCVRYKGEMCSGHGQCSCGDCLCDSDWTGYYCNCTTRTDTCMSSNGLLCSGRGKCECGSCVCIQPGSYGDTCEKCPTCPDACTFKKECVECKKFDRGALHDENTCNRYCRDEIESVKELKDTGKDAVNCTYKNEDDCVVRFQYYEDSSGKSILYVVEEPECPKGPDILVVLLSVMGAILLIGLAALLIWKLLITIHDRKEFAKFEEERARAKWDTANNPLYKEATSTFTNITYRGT

T1: GST-MIIP (migration and invasion inhibitory protein) (human) (UniProt Q5JXC2)
T1 sequence: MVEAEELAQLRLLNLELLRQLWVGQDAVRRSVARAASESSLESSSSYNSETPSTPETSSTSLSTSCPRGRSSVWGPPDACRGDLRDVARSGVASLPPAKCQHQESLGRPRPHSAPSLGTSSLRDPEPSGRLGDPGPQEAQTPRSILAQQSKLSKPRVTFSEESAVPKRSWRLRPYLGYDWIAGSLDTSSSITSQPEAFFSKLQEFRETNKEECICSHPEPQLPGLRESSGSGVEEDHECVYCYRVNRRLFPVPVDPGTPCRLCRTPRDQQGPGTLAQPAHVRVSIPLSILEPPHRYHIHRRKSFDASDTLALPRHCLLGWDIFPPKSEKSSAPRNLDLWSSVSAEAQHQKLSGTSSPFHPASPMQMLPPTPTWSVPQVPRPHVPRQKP

B1: MIIP expressed from pcDNA3.0-MIIP (protein, UniProt Q5JXC2 1-388)
chain: T1 sequence

How the values were obtained:
[1] = target: T1, GST-MIIP (migration and invasion inhibitory protein) (human); assay: pull-down; GST, GST-MIIP or GST-MIIP^ΔRGD on GST agarose beads incubated overnight at 4 °C with lysates of MDA-MB-231 cells; washed three times with PBS; western blot with antibodies against ITGB3 and ITGAV; only the target purified
[2] = target: ITGB3 expressed from pcDNA3.1-beta-3 (human) (UniProt P05106); assay: co-IP; 293T cells; NP40 lysis buffer; antibody against c-Myc tag on Protein G magnetic beads, lysate added overnight at 4 °C; western blot

| Molecule | binding [1] | binding [2] |
| --- | --- | --- |
| Integrin β3 (ITGB3), endogenous in MDA-MB-231 cells (from UniProt P05106 27-788) (receptor) | binds |  |
| B1 |  | binds |
